No constants are given. Whether binding was seen depends on the method and setting. Binding seen in cells or lysates may run through a third protein. Some entries that bind do so weakly or less than the wild type.
molecular target: Myc-tagged Gsk3β (glycogen synthase kinase-3β) (UniProt Q9WV60); assay: co-IP; lysates of cells co-expressing HA-Jak1/2 and Myc-Gsk3β (C3H10T1/2 by the text, 293 cells by the legend); precipitated with a Gsk3β antibody, IgG1 as control; western blot

Amino acid sequences for entries named in this document (tags omitted).
UniProt Q9WV60: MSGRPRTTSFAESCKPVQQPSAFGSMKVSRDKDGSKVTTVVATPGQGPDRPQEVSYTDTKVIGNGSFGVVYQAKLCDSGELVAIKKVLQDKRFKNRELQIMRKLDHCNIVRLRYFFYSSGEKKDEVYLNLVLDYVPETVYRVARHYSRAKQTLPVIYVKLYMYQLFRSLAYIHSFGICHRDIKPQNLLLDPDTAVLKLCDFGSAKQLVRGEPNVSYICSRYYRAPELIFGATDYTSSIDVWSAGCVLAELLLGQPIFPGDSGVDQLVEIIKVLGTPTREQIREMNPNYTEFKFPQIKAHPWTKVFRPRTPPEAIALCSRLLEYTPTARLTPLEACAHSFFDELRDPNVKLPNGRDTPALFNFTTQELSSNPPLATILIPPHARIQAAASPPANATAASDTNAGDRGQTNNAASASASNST
UniProt P52332: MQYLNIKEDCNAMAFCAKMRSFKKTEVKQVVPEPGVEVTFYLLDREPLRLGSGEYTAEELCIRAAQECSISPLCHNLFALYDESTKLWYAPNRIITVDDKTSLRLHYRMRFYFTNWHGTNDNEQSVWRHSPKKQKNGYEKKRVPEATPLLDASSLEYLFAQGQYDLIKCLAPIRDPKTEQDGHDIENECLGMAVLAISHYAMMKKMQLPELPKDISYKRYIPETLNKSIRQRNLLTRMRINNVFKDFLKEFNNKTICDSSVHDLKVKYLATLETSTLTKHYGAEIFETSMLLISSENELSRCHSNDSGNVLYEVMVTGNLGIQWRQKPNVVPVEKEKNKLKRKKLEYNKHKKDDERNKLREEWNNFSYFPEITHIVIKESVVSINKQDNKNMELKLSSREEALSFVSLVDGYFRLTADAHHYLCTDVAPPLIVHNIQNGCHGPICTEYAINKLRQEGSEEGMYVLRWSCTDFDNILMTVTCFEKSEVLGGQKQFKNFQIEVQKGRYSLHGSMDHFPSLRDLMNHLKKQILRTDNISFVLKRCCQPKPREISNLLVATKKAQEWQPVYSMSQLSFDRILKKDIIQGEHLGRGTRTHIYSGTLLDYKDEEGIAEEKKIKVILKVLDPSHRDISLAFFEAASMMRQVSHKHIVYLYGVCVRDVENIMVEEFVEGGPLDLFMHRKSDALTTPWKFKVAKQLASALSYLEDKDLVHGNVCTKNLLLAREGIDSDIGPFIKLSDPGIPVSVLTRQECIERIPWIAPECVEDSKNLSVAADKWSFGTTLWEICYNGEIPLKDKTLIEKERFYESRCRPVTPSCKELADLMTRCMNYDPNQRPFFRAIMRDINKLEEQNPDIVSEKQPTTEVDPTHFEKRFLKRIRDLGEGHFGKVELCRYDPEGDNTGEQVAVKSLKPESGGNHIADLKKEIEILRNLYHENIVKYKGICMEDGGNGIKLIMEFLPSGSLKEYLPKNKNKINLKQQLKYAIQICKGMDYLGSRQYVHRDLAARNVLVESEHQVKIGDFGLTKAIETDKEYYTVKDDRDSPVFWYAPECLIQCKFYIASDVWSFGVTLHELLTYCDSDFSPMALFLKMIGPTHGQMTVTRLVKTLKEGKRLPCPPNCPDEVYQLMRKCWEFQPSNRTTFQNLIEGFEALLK
UniProt Q62120: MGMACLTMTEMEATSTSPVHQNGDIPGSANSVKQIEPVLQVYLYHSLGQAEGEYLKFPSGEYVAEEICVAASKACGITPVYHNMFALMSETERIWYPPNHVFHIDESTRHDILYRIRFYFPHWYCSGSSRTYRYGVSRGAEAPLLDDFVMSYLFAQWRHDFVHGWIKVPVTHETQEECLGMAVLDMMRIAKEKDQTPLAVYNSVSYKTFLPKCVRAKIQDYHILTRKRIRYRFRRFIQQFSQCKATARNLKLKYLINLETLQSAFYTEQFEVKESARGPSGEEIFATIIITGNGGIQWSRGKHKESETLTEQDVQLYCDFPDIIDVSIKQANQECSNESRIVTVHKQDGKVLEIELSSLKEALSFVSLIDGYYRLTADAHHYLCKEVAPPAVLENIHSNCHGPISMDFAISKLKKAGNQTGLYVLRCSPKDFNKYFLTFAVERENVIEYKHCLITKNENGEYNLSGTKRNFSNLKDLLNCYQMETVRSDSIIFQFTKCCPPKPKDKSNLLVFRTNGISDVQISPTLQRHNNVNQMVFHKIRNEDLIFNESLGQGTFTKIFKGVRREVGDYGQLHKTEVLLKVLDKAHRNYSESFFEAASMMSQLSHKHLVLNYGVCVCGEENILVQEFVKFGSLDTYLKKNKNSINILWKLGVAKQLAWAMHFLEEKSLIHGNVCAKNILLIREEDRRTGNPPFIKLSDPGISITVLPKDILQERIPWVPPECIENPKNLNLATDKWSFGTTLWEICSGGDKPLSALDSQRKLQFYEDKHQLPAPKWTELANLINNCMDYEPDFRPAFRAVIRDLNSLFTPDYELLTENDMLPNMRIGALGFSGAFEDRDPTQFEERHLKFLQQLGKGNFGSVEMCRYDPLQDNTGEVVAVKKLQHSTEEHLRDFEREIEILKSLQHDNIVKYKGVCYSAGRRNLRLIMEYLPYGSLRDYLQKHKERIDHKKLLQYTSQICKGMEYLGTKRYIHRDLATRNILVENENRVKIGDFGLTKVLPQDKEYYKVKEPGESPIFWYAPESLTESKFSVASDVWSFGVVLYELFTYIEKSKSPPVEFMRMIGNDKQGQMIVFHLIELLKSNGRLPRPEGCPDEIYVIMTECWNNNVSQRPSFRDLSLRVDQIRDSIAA
UniProt P70336: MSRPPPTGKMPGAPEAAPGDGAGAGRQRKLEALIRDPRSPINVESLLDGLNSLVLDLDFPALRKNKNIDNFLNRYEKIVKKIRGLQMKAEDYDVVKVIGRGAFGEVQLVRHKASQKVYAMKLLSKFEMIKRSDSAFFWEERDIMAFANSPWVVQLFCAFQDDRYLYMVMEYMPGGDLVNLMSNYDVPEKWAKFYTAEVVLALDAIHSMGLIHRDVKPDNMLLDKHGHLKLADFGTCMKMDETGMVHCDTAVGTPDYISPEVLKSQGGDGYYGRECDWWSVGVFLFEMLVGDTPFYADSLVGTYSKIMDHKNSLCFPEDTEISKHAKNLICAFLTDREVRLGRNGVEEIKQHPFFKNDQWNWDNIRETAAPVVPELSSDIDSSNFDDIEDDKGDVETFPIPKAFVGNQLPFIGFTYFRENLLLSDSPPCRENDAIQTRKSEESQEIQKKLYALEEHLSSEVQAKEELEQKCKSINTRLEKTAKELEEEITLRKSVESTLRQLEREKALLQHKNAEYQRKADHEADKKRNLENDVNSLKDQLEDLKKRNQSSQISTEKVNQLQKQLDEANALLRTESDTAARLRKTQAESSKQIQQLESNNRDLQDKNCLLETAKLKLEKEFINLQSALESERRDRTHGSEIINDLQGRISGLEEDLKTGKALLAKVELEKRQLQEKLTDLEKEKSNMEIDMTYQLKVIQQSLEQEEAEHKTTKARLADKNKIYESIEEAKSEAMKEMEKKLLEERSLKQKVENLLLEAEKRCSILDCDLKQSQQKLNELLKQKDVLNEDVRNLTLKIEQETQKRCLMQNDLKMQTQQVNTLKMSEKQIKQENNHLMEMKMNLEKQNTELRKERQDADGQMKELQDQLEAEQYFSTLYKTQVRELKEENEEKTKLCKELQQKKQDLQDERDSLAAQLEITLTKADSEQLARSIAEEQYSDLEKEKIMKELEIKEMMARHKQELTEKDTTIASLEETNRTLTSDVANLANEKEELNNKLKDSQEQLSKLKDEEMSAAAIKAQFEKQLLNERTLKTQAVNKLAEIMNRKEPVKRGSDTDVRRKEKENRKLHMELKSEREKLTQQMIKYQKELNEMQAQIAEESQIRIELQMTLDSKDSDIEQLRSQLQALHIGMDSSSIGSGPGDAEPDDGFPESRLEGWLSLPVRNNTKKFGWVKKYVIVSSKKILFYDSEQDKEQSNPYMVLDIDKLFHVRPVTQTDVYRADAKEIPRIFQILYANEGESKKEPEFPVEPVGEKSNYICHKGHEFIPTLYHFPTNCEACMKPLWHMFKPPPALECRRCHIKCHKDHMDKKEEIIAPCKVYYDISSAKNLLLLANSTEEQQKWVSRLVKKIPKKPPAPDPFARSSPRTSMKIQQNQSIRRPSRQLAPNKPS

binding | Substance
binds | HA-tagged Jak1 (Janus kinase 1) (from UniProt P52332 1-1153) (enzyme)
binds | HA-tagged Jak2 (Janus kinase 2) (from UniProt Q62120 1-1132) (enzyme)
binds | endogenous Rock2 (Rho kinase 2) (from UniProt P70336 1-1388) (enzyme)

— article PMC7925793
